The values that follow come from patent US20090258385A1, “METHOD OF ANALYZING CELLS BY FLOW CYTOMETRY, USE OF AN ANTIOXIDANT AND/OR FREE RADICAL-SCAVENGING AGENT IN SUCH A METHOD AND INCUBATION BUFFER COMPRISING AN ANTIOXIDANT AND/OR FREE RADICAL-SCAVENGING AGENT” (Hopitaux de Paris, priority 2008, published 2009).

The data set relates to lymphocytes labeled with anti-CD45 antibody conjugated with APC tandem. Kind of data set: percentage of decoupling of APC tandem on immunolabeled lymphocytes by flow cytometry. It counts as cell-based, human. The following applies: anti-CD45 conjugate, 30 minutes, room temperature, dark.

As for allophycocyanin-Hilite®7-BD [APC-H7], the “variation of the decoupling ratio during incubation (T0 to T30)” value was “four- to five-fold increase”. For allophycocyanin-cyanine 7 [APC-Cy7] the value was “four- to five-fold increase”.
